At least one compound was matched to its structure with a doubt left.
Assays:
Type in all cases: binding, mouse
mAb 9G3.2 = test system: mAb 9G3.2
mAb 9C12.2 = test system: mAb 9C12.2
mAb AMA9G3 = conditions: cross-reactivity with near neighbor compounds
[1] = (IC50 α-AMA)/(IC50 test inhibitor)×100
[2] = inhibitor mixed with antibody, PERI-AMA-BSA coated plate

With `CN(C)CCc1c[nH]c2cccc(OP(=O)(O)O)c12` [psilocybin] the Cross reactivity (mAb 9G3.2; [1]) was less than 0.3%, the IC50 (mAb 9G3.2; [2]) was greater than 1 µg/mL and the Cross reactivity (mAb 9C12.2; [1]) was less than 0.3%. The IC50 (mAb 9C12.2; [2]) was greater than 1 µg/mL and the “detection by test strips” value (mAb AMA9G3) was “did not detect”.

Source: patent US11802147B2, “High affinity monoclonal antibodies for detecting amanitins” (priority 2019, dated 2023)
